Reference: US6787556B1, “Benzoic acid derivatives for the treatment of diabetes mellitus” (AstraZeneca AB, priority 1999, dated 2004)
At least one compound was matched to its structure with a doubt left.

Test system: 3T3L1 preadipocytes
Test: Adipocyte differentiation assay (glycerophosphate dehydrogenase activity)
Format: cell-based
Conditions: 3T3L1 cells, day 7
Description: Adipocyte Differentiation Assay
3T3L1 preadipocytes were grown in DMEM containing 10% NBCS and 1 day post-confluence cells were cultured in differentiation medium (DMEM containing 5% FCS, 1 μg/ml insulin, 0.25 μM dexamethasone and 0.5 mM IBMX) in the presence or absence of compounds. BRL 49653 was used as the positive control and the medium replenished after 3 days. On day 7, cells were lysed and glycerophosphate dehydrogenase activity measured spectrophotometrically at 340 nm.

SMILES: CN(CCOc1ccc(CC2SC(=O)NC2=O)cc1)c1ccccn1 (stereo not shown) [BRL 49653, rosiglitazone, reference compound]
- glycerophosphate dehydrogenase activity: dose related increase
